Data on 35 targets can be found in the supplement of paper PMC12819154, “High-throughput peptide-centric local stability assay extends protein–ligand identification to membrane proteins, tissues and bacteria” (Nature Structural & Molecular Biology, 2025).

Protein sequences, listed by entry. Tags and fused reporters are not part of them. Lines headed by an entry give the natural chain unless they say otherwise; changes in a name come on top.
UniProt P51798: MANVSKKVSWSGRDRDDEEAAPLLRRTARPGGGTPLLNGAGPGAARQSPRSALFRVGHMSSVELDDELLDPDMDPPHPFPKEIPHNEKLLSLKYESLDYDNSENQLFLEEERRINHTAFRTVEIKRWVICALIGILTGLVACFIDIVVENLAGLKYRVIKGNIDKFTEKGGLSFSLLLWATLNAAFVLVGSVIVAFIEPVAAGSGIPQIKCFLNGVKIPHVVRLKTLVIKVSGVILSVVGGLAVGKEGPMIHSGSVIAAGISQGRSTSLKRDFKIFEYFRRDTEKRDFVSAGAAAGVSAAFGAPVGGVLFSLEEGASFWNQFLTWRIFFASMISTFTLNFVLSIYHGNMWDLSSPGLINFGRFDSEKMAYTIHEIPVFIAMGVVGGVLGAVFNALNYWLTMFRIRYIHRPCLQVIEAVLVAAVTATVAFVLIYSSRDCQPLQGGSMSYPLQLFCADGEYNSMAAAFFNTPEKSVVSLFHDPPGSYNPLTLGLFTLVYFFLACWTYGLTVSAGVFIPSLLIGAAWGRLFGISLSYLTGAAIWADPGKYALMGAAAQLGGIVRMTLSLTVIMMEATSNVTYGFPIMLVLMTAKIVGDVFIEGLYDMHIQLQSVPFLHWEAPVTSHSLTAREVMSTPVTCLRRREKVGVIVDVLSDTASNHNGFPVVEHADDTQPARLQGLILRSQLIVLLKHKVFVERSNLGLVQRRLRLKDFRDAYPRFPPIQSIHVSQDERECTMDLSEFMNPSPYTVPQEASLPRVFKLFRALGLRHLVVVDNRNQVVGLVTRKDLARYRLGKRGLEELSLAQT
UniProt P49736, whole entry: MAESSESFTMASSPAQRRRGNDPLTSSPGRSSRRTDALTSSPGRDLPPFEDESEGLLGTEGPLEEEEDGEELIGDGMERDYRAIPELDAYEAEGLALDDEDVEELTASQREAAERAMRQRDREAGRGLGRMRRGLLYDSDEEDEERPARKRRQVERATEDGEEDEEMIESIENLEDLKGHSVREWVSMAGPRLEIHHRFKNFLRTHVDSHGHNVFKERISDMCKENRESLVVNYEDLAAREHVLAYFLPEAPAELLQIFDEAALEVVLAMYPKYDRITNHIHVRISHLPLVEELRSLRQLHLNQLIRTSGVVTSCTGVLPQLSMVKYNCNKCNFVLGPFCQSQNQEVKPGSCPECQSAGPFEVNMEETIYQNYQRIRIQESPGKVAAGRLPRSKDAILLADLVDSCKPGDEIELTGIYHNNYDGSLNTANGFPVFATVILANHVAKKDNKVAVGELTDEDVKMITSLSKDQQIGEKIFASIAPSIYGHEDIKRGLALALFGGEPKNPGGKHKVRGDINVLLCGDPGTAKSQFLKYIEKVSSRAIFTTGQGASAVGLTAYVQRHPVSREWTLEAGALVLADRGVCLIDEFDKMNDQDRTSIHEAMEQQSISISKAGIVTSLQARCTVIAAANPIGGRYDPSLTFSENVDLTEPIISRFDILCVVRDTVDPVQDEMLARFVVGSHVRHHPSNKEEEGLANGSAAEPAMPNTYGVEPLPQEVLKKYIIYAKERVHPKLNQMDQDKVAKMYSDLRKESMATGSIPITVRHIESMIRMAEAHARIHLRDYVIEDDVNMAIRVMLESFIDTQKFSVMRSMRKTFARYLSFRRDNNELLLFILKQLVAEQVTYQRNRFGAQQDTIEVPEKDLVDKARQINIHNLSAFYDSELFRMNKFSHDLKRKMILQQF
UniProt P52943: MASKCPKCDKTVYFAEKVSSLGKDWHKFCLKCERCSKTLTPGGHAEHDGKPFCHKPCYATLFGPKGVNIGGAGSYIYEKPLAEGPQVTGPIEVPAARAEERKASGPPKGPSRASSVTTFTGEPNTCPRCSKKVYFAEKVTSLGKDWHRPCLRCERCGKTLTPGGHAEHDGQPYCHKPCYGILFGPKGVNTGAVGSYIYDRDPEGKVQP
UniProt P46108: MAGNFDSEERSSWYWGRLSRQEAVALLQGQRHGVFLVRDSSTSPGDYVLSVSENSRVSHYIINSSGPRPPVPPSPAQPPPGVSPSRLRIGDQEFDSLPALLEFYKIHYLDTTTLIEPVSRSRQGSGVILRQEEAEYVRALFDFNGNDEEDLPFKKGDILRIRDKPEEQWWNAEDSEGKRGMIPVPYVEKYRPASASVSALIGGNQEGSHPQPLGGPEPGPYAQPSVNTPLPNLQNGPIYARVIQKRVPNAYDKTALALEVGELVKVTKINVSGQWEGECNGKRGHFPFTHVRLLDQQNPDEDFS
UniProt P50453: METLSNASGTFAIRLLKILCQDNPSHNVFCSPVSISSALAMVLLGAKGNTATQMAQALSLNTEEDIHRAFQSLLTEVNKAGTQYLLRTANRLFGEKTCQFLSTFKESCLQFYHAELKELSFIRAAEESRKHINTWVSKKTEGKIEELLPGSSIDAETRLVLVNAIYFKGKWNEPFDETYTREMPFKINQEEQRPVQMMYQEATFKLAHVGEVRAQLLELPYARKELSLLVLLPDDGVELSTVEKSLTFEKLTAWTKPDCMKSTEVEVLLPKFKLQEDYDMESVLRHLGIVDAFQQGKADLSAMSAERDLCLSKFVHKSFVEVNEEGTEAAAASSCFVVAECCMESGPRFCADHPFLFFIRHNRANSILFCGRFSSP
UniProt P48736: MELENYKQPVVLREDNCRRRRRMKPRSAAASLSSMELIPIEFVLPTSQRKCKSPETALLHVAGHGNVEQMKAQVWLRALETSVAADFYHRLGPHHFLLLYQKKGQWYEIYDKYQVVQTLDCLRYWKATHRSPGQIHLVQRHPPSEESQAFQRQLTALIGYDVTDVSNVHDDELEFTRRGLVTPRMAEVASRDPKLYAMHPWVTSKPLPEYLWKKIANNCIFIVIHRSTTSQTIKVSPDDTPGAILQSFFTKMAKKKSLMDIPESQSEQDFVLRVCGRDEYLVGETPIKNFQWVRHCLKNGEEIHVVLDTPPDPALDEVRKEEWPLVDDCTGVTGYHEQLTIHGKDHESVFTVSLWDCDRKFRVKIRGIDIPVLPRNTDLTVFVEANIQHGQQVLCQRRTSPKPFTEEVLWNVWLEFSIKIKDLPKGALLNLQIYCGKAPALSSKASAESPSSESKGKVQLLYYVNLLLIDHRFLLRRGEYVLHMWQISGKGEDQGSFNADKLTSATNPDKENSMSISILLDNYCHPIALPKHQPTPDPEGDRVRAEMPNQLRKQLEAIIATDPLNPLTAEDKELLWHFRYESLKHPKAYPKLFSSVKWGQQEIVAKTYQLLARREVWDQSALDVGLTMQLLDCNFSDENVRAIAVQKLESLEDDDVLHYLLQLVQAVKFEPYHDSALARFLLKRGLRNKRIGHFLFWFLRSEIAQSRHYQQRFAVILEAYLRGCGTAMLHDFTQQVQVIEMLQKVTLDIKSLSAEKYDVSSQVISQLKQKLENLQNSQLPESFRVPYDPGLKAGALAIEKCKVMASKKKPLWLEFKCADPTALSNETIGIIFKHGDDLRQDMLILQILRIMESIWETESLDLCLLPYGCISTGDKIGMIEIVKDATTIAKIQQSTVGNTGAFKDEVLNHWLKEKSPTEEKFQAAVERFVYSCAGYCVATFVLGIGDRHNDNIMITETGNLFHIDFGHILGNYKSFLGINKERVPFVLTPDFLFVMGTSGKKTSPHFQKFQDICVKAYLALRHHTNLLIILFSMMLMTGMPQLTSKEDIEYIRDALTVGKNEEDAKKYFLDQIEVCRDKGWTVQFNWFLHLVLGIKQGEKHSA
UniProt P53701: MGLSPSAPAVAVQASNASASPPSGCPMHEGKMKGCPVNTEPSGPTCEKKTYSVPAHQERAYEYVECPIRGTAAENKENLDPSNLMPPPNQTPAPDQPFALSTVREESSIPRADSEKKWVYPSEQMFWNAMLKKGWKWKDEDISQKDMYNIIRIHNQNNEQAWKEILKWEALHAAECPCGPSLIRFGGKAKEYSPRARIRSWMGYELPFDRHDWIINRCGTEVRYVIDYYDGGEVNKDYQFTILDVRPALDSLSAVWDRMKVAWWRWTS
UniProt P49593: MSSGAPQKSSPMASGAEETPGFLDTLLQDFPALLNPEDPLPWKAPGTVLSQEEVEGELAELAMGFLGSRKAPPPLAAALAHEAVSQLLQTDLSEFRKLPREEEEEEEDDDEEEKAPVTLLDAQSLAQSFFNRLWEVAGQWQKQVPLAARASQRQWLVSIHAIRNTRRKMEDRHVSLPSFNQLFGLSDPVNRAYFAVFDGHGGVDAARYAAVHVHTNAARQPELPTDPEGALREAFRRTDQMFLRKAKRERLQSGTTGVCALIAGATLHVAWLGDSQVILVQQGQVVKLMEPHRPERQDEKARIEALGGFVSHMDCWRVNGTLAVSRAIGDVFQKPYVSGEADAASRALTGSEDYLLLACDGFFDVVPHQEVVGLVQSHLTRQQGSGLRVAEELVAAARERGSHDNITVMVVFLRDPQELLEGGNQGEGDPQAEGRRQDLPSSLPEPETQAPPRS
UniProt P48380: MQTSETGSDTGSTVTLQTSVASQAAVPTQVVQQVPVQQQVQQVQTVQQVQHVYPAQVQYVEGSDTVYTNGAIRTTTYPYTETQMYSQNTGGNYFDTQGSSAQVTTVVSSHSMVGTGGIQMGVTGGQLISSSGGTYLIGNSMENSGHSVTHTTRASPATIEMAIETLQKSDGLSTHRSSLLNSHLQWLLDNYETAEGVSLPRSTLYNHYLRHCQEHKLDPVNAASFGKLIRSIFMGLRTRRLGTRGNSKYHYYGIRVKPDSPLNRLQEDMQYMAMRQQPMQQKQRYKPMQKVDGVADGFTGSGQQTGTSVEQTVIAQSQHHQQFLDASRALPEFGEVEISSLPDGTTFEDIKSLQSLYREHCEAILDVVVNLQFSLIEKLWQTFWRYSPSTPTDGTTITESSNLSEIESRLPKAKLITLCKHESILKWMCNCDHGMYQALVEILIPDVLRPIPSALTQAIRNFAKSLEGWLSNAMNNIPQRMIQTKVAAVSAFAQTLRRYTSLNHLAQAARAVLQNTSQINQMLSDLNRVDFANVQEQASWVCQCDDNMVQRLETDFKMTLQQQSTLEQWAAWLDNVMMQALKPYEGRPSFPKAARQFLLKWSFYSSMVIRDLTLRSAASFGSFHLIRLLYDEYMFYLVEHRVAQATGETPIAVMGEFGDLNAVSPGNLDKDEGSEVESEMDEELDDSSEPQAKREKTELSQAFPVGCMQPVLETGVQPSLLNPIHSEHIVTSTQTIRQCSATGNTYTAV
UniProt P53805: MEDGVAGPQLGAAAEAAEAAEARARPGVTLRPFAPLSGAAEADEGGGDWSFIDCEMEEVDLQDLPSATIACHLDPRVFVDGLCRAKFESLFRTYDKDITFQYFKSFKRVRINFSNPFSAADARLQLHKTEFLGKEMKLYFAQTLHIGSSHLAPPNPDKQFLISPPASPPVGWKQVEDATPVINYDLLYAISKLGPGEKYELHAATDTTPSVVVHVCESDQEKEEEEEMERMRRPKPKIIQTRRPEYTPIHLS
UniProt P51523: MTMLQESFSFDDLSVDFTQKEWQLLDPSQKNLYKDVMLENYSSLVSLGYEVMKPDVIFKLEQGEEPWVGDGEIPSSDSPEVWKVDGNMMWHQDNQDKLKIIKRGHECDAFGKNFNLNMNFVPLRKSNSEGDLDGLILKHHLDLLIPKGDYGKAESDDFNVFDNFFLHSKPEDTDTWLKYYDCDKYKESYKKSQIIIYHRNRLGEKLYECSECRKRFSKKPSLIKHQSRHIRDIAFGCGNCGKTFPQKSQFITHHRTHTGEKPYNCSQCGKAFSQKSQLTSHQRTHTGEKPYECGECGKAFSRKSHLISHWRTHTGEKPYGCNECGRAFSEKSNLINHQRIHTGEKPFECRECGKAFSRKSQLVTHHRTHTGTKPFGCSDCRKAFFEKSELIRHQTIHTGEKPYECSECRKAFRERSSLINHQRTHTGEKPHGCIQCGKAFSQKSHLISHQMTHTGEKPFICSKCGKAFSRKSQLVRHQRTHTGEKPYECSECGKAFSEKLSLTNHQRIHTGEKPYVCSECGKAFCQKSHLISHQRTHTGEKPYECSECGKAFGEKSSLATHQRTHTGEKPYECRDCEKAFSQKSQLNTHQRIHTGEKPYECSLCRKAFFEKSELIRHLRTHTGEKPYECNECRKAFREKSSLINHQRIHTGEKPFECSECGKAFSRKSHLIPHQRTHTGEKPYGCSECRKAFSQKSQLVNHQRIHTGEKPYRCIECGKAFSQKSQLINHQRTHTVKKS
UniProt P53384: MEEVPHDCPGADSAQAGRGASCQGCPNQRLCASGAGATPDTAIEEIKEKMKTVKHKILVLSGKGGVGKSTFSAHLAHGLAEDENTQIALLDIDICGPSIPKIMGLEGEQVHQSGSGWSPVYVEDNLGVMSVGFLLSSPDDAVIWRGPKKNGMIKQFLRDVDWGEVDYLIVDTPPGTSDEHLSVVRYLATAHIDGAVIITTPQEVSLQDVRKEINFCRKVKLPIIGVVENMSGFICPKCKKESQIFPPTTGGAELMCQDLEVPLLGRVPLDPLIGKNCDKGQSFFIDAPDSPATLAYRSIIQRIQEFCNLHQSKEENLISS

The other results are listed elsewhere or left out. Most values lie at the level of the controls, where differences are scatter.

Compound in this assay: CN[C@@H]1C[C@H]2O[C@@](C)([C@@H]1OC)n1c3ccccc3c3c4c(c5c6ccccc6n2c5c31)C(=O)NC4 [staurosporine]
As to the kind of experiment: log2 fold change of tryptic peptide abundance, ligand vs vehicle (limited proteolysis) (log2 ratio); higher = more trypsin-susceptible (destabilized). Particulars: ligand concentration: 20 uM; sample: K562 cleared lysate; digestion: 4 min, 22 C (HT-PELSA RT4min, Orbitrap Astral).
Regarding “ATRX (peptide sequence: EKTEDKDK, peptide start residue: 2060) (UniProt P46100)”, the log2 fold change was 0.747.

As for “ZNF143 (peptide sequence: QISTLAMHKR, peptide start residue: 428) (UniProt P52747)”, the log2 fold change is 0.63.

With “ARFIP2 (peptide sequence: KYESVLQLGR, peptide start residue: 139) (UniProt P53365)”, the log2 fold change was found to be 0.195.

Take “CLCN7 (peptide sequence: TARPGGGTPLLNGAGPGAAR, peptide start residue: 27) (UniProt P51798)”: the log2 fold change was found to be 0.069.

Regarding “MCM2 (peptide sequence: ITNHIHVR, peptide start residue: 277) (UniProt P49736)”, the log2 fold change is 0.335.

As to “RPS10 (peptide sequence: IAIYELLFKEGVMVAKK, peptide start residue: 9) (UniProt P46783)”, the log2 fold change is 0.383.

For the target “CRIP2 (peptide sequence: GVNTGAVGSYIYDRDPEGK, peptide start residue: 187) (UniProt P52943)”, the log2 fold change was -0.261.

For “MRPL19 (peptide sequence: FLSPEFIPR, peptide start residue: 75) (UniProt P49406)”, the log2 fold change was -0.0728.

As for “PMS2 (peptide sequence: FKKEEILSSSDICQK, peptide start residue: 579) (UniProt P54278)”, the log2 fold change is -0.327.

In the case of “CRK (peptide sequence: ALFDFNGNDEEDLPFKK, peptide start residue: 139) (UniProt P46108)”, the log2 fold change was -0.172.

For “CLCN6 (peptide sequence: GNQLISNNIK, peptide start residue: 649) (UniProt P51797)”, the log2 fold change was -0.00399.

On to “GNPDA1 (peptide sequence: GLMLVHNK, peptide start residue: 257) (UniProt P46926)”, for which the log2 fold change worked out at 0.625.

On to “MNX1 (peptide sequence: ASTAGMILPK, peptide start residue: 216) (UniProt P50219)”, for which the log2 fold change is 0.249.

Turning to “SERPINB9 (peptide sequence: HLGIVDAFQQGK, peptide start residue: 286) (UniProt P50453)”, the log2 fold change came to 1.29.

As for “EMD (peptide sequence: GDADMYDLPKKEDALLYQSK, peptide start residue: 69) (UniProt P50402)”, the log2 fold change is -0.254.

Take “PIK3CG (peptide sequence: ASAESPSSESK, peptide start residue: 445) (UniProt P48736)”: the log2 fold change was -0.232.

For the target “HDGF (peptide sequence: MKGYPHWPARIDEMPEAAVK, peptide start residue: 20) (UniProt P51858)”, the log2 fold change was determined as 0.367.

As to “HCCS (peptide sequence: AYEYVECPIR, peptide start residue: 60) (UniProt P53701)”, the log2 fold change was found to be 0.337.

For “PPM1F (peptide sequence: QWLVSIHAIR, peptide start residue: 154) (UniProt P49593)”, the log2 fold change is -0.145.

Regarding “RXRG (peptide sequence: ILEAELAVEPK, peptide start residue: 235) (UniProt P48443)”, the log2 fold change is -0.238.

With “HCFC1 (peptide sequence: SPDGAHLTWEPPSVTSGK, peptide start residue: 1902) (UniProt P51610)”, the log2 fold change was 0.432.

As for “HSD17B4 (peptide sequence: QKNHPMTPEAVK, peptide start residue: 259) (UniProt P51659)”, the log2 fold change was determined as 0.462.

Regarding “RPL21 (peptide sequence: RQPAPPREAHFVR, peptide start residue: 130) (UniProt P46778)”, the log2 fold change was 0.476.

Turning to “NSF (peptide sequence: TTIAQQVK, peptide start residue: 692) (UniProt P46459)”, the log2 fold change was -0.203.

“KPNA2 (peptide sequence: NKNPAPPIDAVEQILPTLVR, peptide start residue: 239) (UniProt P52292)”: the log2 fold change was -0.304.

On to “RFX3 (peptide sequence: ASPATIEMAIETLQK, peptide start residue: 154) (UniProt P48380)”, for which the log2 fold change was -0.509.

In the case of “RPL28 (peptide sequence: TVGVEPAADGK, peptide start residue: 48) (UniProt P46779)”, the log2 fold change is -0.0987.

As to “RCAN1 (peptide sequence: VFVDGLCR, peptide start residue: 77) (UniProt P53805)”, the log2 fold change stood at 0.222.

In the case of “UniProt P52758 (peptide sequence: AAYQVAALPK, peptide start residue: 108)”, the log2 fold change is -0.051.

As for “HSPA13 (peptide sequence: VINEPTAAAMAYGLHK, peptide start residue: 200) (UniProt P48723)”, the log2 fold change is -0.508.

As for “AP3M2 (peptide sequence: ELIKPPTILR, peptide start residue: 132) (UniProt P53677)”, the log2 fold change is 0.0916.

Regarding “GYG1 (peptide sequence: GALVLGSSLK, peptide start residue: 18) (UniProt P46976)”, the log2 fold change is -0.405.

In the case of “KNTC1 (peptide sequence: QHLEMDHPK, peptide start residue: 821) (UniProt P50748)”, the log2 fold change was determined as 1.02.

For “UniProt P51523 (peptide sequence: LYECSECR, peptide start residue: 206)”, the log2 fold change is -0.174.

As to “NUBP1 (peptide sequence: VKLPIIGVVENMSGFICPKCK, peptide start residue: 219) (UniProt P53384)”, the log2 fold change is -0.566.
